Results taken from the M2OR odorant receptor database.
This is a selection; strong and weak results do not stand in their true shares. Calls are pooled over several reports, among them a noisy single-well screen. This is one part of the list.

Assays:
Conditions in all cases: stereoisomer not certain
OR52N5 (Homo sapiens) = molecular target: T1, OR52N5 (Homo sapiens) (UniProt Q8NH56)
T1 sequence (whole entry): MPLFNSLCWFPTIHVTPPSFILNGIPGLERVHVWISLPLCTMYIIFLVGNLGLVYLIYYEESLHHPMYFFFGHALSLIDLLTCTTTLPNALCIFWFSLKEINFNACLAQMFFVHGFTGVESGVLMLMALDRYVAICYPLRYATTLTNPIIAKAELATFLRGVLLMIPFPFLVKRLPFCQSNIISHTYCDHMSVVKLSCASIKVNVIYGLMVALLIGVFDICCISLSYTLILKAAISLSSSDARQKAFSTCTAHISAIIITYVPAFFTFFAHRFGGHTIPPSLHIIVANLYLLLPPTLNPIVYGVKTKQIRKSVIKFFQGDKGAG
Procedure, shortened: (§1)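 Assay methods differ from source to source, frequently being transient luciferase assays in mammalian cell lines. For each receptor–molecule pair, the label responsive (active) applies when the original authors judged the measured signal statistically different from baseline, and non-responsive (inactive) applies otherwise.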

OR56A1 (Homo sapiens) = molecular target: T2, OR56A1 (Homo sapiens) (UniProt Q8NGH5)
T2 sequence (whole entry): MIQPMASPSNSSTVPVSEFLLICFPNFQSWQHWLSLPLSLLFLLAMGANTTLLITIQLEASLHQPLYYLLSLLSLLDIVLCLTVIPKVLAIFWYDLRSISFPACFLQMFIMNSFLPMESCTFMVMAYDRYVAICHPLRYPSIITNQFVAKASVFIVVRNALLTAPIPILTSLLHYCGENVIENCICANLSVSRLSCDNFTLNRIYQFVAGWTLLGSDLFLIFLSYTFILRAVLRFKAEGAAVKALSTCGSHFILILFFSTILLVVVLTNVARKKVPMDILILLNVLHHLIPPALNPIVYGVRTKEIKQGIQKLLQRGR
Procedure, shortened: as §1

OR56A4 (Homo sapiens) = molecular target: T3, OR56A4 (Homo sapiens) (UniProt Q8NGH8)
T3 sequence (whole entry): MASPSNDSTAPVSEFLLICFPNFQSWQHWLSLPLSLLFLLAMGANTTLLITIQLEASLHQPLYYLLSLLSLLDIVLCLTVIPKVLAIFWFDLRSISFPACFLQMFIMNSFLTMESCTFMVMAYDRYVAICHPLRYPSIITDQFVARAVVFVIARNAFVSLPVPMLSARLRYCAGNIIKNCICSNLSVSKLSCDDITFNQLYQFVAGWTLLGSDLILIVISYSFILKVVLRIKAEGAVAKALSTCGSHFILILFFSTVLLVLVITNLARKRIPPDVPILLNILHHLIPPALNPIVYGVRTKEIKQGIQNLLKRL
Procedure, shortened: as §1

OR56A5 (Homo sapiens) = molecular target: T4, OR56A5 (Homo sapiens) (UniProt P0C7T3)
T4 sequence (whole entry): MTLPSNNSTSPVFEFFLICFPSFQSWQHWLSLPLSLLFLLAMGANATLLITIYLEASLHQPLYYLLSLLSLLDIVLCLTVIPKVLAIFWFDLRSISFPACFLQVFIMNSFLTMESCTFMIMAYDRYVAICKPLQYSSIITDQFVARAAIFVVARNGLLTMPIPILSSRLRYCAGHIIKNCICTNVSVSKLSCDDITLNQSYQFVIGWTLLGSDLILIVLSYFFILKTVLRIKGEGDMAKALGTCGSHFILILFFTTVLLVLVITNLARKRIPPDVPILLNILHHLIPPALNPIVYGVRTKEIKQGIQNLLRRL
Procedure, shortened: as §1

OR5A1 [1] = system: T5, OR5A1
T5 sequence (whole entry): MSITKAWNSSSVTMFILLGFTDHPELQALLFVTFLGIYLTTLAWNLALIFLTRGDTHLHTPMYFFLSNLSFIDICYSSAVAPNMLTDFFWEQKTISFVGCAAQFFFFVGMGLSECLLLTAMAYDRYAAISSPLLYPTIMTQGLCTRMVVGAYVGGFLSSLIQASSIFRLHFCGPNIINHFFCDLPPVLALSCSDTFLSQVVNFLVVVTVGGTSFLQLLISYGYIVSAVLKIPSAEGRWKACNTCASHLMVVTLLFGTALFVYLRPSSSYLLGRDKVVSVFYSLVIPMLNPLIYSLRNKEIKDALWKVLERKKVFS
Procedure, shortened: as §1

OR5A1 [2] = system: T6, OR5A1; remark: listed apart in the source
T6 sequence (whole entry): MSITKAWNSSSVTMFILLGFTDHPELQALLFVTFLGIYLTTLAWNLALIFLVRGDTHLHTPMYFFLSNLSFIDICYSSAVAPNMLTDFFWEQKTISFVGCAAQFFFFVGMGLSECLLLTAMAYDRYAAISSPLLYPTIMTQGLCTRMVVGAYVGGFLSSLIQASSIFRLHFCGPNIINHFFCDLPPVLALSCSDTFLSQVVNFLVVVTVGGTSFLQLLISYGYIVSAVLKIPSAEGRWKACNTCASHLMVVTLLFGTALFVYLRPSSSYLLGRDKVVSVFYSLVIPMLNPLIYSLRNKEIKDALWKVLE
Procedure, shortened: as §1

OR5A1 [3] = system: T7, OR5A1; remark: listed apart in the source
T7 sequence (whole entry): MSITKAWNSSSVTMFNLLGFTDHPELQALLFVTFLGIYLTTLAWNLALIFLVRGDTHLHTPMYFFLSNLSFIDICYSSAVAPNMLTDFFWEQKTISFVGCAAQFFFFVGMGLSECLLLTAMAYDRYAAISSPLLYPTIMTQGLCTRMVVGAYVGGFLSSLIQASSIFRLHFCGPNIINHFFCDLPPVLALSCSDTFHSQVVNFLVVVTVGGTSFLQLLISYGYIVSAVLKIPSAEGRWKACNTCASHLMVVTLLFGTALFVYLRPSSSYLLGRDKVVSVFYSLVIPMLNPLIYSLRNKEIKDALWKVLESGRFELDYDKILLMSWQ
Procedure, shortened: as §1

OR5A2 (Homo sapiens) = molecular target: T8, OR5A2 (Homo sapiens) (UniProt Q8NGI9)
T8 sequence (whole entry): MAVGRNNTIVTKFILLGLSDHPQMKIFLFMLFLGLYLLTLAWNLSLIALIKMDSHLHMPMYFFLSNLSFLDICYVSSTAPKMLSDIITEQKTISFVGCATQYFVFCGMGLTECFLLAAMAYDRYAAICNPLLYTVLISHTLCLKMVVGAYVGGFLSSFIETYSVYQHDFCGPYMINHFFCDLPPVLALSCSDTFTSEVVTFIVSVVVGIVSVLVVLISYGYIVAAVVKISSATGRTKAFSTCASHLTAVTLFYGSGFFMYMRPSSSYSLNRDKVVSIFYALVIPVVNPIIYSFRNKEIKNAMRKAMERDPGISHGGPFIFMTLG
Procedure, shortened: as §1

OR5AK2 (Homo sapiens) = molecular target: T9, OR5AK2 (Homo sapiens) (UniProt Q8NH90)
T9 sequence (whole entry): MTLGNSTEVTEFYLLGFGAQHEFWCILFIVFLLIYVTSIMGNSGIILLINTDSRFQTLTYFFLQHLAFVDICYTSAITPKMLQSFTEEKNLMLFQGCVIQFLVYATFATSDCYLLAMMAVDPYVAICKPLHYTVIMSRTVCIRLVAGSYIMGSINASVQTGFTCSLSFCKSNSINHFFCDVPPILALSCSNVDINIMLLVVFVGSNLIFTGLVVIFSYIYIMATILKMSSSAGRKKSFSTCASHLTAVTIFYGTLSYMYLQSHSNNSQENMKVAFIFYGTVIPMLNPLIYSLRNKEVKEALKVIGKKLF
Procedure, shortened: as §1

OR5AC2 (Homo sapiens) = molecular target: T10, OR5AC2 (Homo sapiens) (UniProt Q9NZP5)
T10 sequence (whole entry): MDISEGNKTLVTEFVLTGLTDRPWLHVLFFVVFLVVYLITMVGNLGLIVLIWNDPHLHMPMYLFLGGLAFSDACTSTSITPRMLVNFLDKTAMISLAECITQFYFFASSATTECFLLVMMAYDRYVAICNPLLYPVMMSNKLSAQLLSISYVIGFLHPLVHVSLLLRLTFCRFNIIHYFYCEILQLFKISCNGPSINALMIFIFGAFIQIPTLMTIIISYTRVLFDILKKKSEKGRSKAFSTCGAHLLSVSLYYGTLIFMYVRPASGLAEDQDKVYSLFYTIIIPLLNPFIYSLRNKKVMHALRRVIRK
Procedure, shortened: as §1

Measured: odorant receptor agonist call

c1ccc(Oc2ccccc2)cc1
inactive: OR52N5 (Homo sapiens) | OR56A1 (Homo sapiens) | OR56A4 (Homo sapiens) | OR56A5 (Homo sapiens) | OR5A1 [1] | OR5A1 [2] | OR5A1 [3] | OR5A2 (Homo sapiens) | OR5AK2 (Homo sapiens)

CCCCCCCCOC(C)=O
active: OR56A5 (Homo sapiens)
inactive: OR52N5 (Homo sapiens) | OR56A1 (Homo sapiens) | OR56A4 (Homo sapiens) | OR5A1 [1] | OR5A1 [2] | OR5A1 [3] | OR5A2 (Homo sapiens) | OR5AK2 (Homo sapiens)

CC(C)=CCCC(C)=CC=O
inactive: OR56A1 (Homo sapiens) | OR56A4 (Homo sapiens) | OR56A5 (Homo sapiens) | OR5A1 [1] | OR5A1 [2] | OR5A1 [3] | OR5A2 (Homo sapiens) | OR5AK2 (Homo sapiens)
active: OR52N5 (Homo sapiens)

CC(=O)OC(C)(C)C1CC=C(C)CC1 (centres undefined)
inactive: OR56A1 (Homo sapiens) | OR56A4 (Homo sapiens) | OR56A5 (Homo sapiens) | OR5A1 [1] | OR5A1 [2] | OR5A1 [3] | OR5A2 (Homo sapiens) | OR5AC2 (Homo sapiens) | OR5AK2 (Homo sapiens)
active: OR52N5 (Homo sapiens)

O=C1CCCCCCCCCCCC(=O)OCCO1
active: OR52N5 (Homo sapiens) | OR56A4 (Homo sapiens) | OR56A5 (Homo sapiens)
inactive: OR56A1 (Homo sapiens) | OR5A1 [1] | OR5A1 [2] | OR5A1 [3] | OR5A2 (Homo sapiens) | OR5AK2 (Homo sapiens)

CC(C)CC(=O)O
inactive: OR52N5 (Homo sapiens) | OR56A1 (Homo sapiens) | OR56A4 (Homo sapiens) | OR5A1 [1] | OR5A1 [2] | OR5A1 [3] | OR5A2 (Homo sapiens) | OR5AK2 (Homo sapiens)
active: OR56A5 (Homo sapiens)

CCC1(O)C2(C)CCC(C2)C1(C)C (centres undefined)
inactive: OR52N5 (Homo sapiens) | OR56A1 (Homo sapiens) | OR56A4 (Homo sapiens) | OR56A5 (Homo sapiens) | OR5A1 [1] | OR5A1 [2] | OR5A1 [3] | OR5A2 (Homo sapiens) | OR5AK2 (Homo sapiens)
